Assay results as given in PubChem BioAssay AID248 (DTP/NCI, 2004).
The list does not hold the whole screen: it gathers tests that were run many times, whatever their T/C, doses with no T/C, and many T/C values between a quarter and a half above the control. Other doses and runs of a compound stand elsewhere. T/C gives the treated animals as a percentage of the vehicle group. Some doses have a count of surviving animals in place of a T/C: the source files T/C as zero there, which appears to mark a toxic dose or a test without result, not a measured value. Some survivor counts are full or nearly so, which does not show that the dose was tolerated: the source hardly ever lists a survival T/C far under the control, and the zero likely stands for such cases as well. Survivors were counted at the toxicity check, usually on the fifth day, unless a day is given; later deaths do not show. Schedules are NCI's codes, read here as Q, the interval in days (D) or hours (H), X, the number of doses. Some entries hold several experiments; their values stand side by side, smallest first. Some schedules carry Z or #; the key to these is not given. Where survival is the endpoint, this PubChem deposit counts one and a half times the control or more as active, and values a quarter to a half above the control carry no call in these data; other NCI protocols may use other cut-offs.

Tested on: L1210 leukemia ip in BDF1 mice, survival T/C
Experiment: NCI In Vivo Anticancer Drug Screen. Data for tumor model L1210 Leukemia (intraperitoneal) in B6D2F1 (BDF1) mice
Conditions: T/C endpoint: mean survival time, higher T/C = longer survival
[1] = dose: 100.0 mg/kg/injection, schedule: Q04DX003 (ip), vehicle: saline
[2] = dose: 200.0 mg/kg/injection, schedule: Q04DX003 (ip), vehicle: saline
[3] = dose: 400.0 mg/kg/injection, schedule: Q04DX003 (ip), vehicle: saline
[4] = dose: 400.0 mg/kg/injection, schedule: Q01DX001 (ip), vehicle: saline with Tween-80
[5] = dose: 200.0 mg/kg/injection, schedule: Q01DX009 (ip), vehicle: saline
[6] = dose: 400.0 mg/kg/injection, schedule: Q01DX009 (ip), vehicle: saline
[7] = dose: 400.0 mg/kg/injection, schedule: Q04DX002 (ip), vehicle: saline

Q: What does the source list for `CN(C)CC/C=C1\c2ccccc2Sc2ccc(C(F)(F)F)cc21`?
A: survivor count (dose: 6.25 mg/kg/injection, schedule: Q01DX009 (ip), vehicle: saline): 0 of 6; survivor count (dose: 12.5 mg/kg/injection, schedule: Q01DX009 (ip), vehicle: saline): 1 of 6; T/C (dose: 14.0 mg/kg/injection, schedule: Q01DX Z (ip), vehicle: other): 126 % of control; T/C (dose: 21.0 mg/kg/injection, schedule: Q01DX Z (ip), vehicle: carboxymethylcellulose (CMC)): 128 % of control; survivor count (dose: 25.0 mg/kg/injection, schedule: Q01DX009 (ip), vehicle: saline): 6 of 6; survivor count (dose: 25.0 mg/kg/injection, schedule: Q04DX003 (ip), vehicle: saline): 1 of 4; survivor count (dose: 31.0 mg/kg/injection, schedule: Q01DX Z (ip), vehicle: other): 2 of 6; survivor count (dose: 50.0 mg/kg/injection, schedule: Q01DX009 (ip), vehicle: saline): 3 of 6; survivor count (dose: 50.0 mg/kg/injection, schedule: Q04DX003 (ip), vehicle: saline): 0 of 4; survivor count (dose: 62.0 mg/kg/injection, schedule: Q01DX Z (ip), vehicle: other): 0 of 6; survivor count [1]: 0 of 4 and 3 of 6; survivor count [2]: 0 of 4 and 0 of 6; survivor count [3]: 0 of 4

Q: With `O=C1c2ccccc2-c2cccc3ccc(Cc4ccccc4)c1c23` as the compound, how does the survivor count [4] read?
A: The survivor count was 3 of 3.

Q: For `NC1(c2ccccc2)CCCCC1`, which survivor count (dose: 100.0 mg/kg/injection, schedule: Q01DX009 (ip), vehicle: saline) is on record?
A: Its survivor count is 0 of 6.

Q: And the survivor count [1]?
A: The survivor count was 3 of 4.

Q: And the survivor count [5]?
A: Its survivor count is 0 of 6.

Q: What about the survivor count [2] of the same compound?
A: Its survivor count is 0 of 4.

Q: And the survivor count [6]?
A: Its survivor count is 0 of 6.

Q: What about the survivor count [3] of the same compound?
A: The survivor count was 0 of 4.

Q: `COc1ccc2c3c1OC1C(=O)CCC4C(C2)N(C)CCC314` (stereo not given) was tested. Which survivor count (dose: 150.0 mg/kg/injection, schedule: Q01DX001 (ip), vehicle: saline) did it give?
A: Its survivor count is 2 of 6.

Q: What about the survivor count (dose: 300.0 mg/kg/injection, schedule: Q01DX001 (ip), vehicle: saline) of the same compound?
A: Its survivor count is 0 of 6.

Q: Which survivor count (dose: 50.0 mg/kg/injection, schedule: Q04DX002 (ip), vehicle: saline with Tween-80) does the source give for `COc1cc(C)c(Cl)[n+]([O-])n1` here?
A: Its survivor count is 1 of 3.

Q: And the survivor count (dose: 100.0 mg/kg/injection, schedule: Q04DX002 (ip), vehicle: saline with Tween-80)?
A: Its survivor count is 0 of 3.

Q: What about the survivor count (dose: 200.0 mg/kg/injection, schedule: Q04DX002 (ip), vehicle: saline with Tween-80) of the same compound?
A: Its survivor count is 0 of 3.

Q: With `O=C(Nc1ccc(Cl)cc1)Oc1c(Cl)cc(Cl)c(Cl)c1[N+](=O)[O-]` as the compound, how does the survivor count (dose: 400.0 mg/kg/injection, schedule: Q04DX002 (ip), vehicle: gum acacia) read?
A: The survivor count was 0 of 3.

Q: How did the survivor count (dose: 200.0 mg/kg/injection, schedule: Q04DX003 (ip), vehicle: carboxymethylcellulose (CMC)) turn out when `O=C(CCl)Nc1ccc(S(=O)(=O)F)cc1` was run?
A: The survivor count was 3 of 6.

Q: What about the survivor count (dose: 400.0 mg/kg/injection, schedule: Q04DX003 (ip), vehicle: carboxymethylcellulose (CMC)) of the same compound?
A: The survivor count was 4 of 6.

Q: How did the survivor count (dose: 50.0 mg/kg/injection, schedule: Q01DX001 (ip), vehicle: Klucel (hydroxypropylcellulose) (HPC)) turn out when `Cc1nnc2ncnc(SCc3ccccc3)c2n1` was run?
A: The survivor count was 6 of 6.

Q: With `CCOC(=O)N1C=Cn2c(cnc2C)C1OC` (stereo not given) as the compound, how does the survivor count (dose: 100.0 mg/kg/injection, schedule: Q01DX009 (ip), vehicle: water) read?
A: Its survivor count is 6 of 6.

Q: And the survivor count (dose: 400.0 mg/kg/injection, schedule: Q01DX009 (ip), vehicle: water)?
A: Its survivor count is 2 of 6.

Q: Which survivor count [5] does the source give for `C/C=C/C(=O)Nc1cc(C(F)(F)F)ccc1Cl` here?
A: Its survivor count is 3 of 3.

Q: What about the survivor count (dose: 200.0 mg/kg/injection, schedule: Q04DX003 (ip), vehicle: saline with Tween-80) of the same compound?
A: The survivor count was 6 of 6.

Q: What about the survivor count [4] of the same compound?
A: Its survivor count is 5 of 6.

Q: What about the survivor count [6] of the same compound?
A: The survivor count was 0 of 3 and 0 of 6.

Q: And the survivor count [7]?
A: The survivor count was 3 of 6.

Q: Which survivor count [3] does the source give for `CCOC(=O)C1CSCN1` (stereo not given) here?
A: Its survivor count is 1 of 6.

Q: What does the source list for `CCCCCN1CCCC(OC(=O)N(C)C)C1` (stereo not given)?
A: survivor count (dose: 100.0 mg/kg/injection, schedule: Q04DX002 (ip), vehicle: saline): 1 of 3; survivor count (dose: 200.0 mg/kg/injection, schedule: Q04DX002 (ip), vehicle: saline): 1 of 3; survivor count [7]: 0 of 3

Q: With `C/C=C/C=C\COC(=O)C(C)(C)CCC` as the compound, how does the T/C [7] read?
A: Its T/C is 130 % of control.

Q: How did the survivor count (dose: 50.0 mg/kg/injection, schedule: Q04DX002 (ip), vehicle: Klucel (hydroxypropylcellulose) (HPC)) turn out when `NC(CSS(=O)(=O)O)=NCCc1ccc(O)cc1` was run?
A: The survivor count was 3 of 3.

Q: And the survivor count (dose: 200.0 mg/kg/injection, schedule: Q04DX002 (ip), vehicle: Klucel (hydroxypropylcellulose) (HPC))?
A: Its survivor count is 3 of 3.

Q: And the survivor count (dose: 400.0 mg/kg/injection, schedule: Q04DX002 (ip), vehicle: Klucel (hydroxypropylcellulose) (HPC))?
A: The survivor count was 0 of 3.

Q: How did the survivor count (dose: 30.0 mg/kg/injection, schedule: Q01DX Z (ip), vehicle: saline) turn out when `Cc1ccc(C(=NN=C(N)N)c2ccc(C)cc2)cc1` was run?
A: Its survivor count is 1 of 6.

Q: And the survivor count (dose: 60.0 mg/kg/injection, schedule: Q01DX Z (ip), vehicle: saline)?
A: Its survivor count is 2 of 6.

Q: What about the survivor count (dose: 120.0 mg/kg/injection, schedule: Q01DX Z (ip), vehicle: saline) of the same compound?
A: Its survivor count is 0 of 6.

Q: With `N#CC(C#N)=CN1CCOCC1` as the compound, how does the survivor count (dose: 400.0 mg/kg/injection, schedule: Q04DX002 (ip), vehicle: saline with Tween-80) read?
A: Its survivor count is 0 of 3.

Q: Which survivor count [4] does the source give for `CCCCCCN(CCCCCC)CP(=S)(CN(CCCCCC)CCCCCC)CN(CCCCCC)CCCCCC` here?
A: Its survivor count is 0 of 6.

Q: How did the survivor count (dose: 4.0 mg/kg/injection, schedule: Q01DX001 (ip), vehicle: saline) turn out when `CCCCCCCCCCCCCC[n+]1ccccc1` was run?
A: The survivor count was 0 of 6.

Q: And the survivor count (dose: 5.0 mg/kg/injection, schedule: Q01DX001 (ip), vehicle: saline)?
A: Its survivor count is 0 of 6.

Q: What about the survivor count (dose: 8.0 mg/kg/injection, schedule: Q01DX001 (ip), vehicle: saline) of the same compound?
A: Its survivor count is 3 of 6.

Q: What about the survivor count (dose: 10.0 mg/kg/injection, schedule: Q01DX001 (ip), vehicle: saline) of the same compound?
A: Its survivor count is 3 of 6.

Q: And the survivor count (dose: 20.0 mg/kg/injection, schedule: Q01DX001 (ip), vehicle: saline)?
A: The survivor count was 3 of 6.

Q: What about the survivor count (dose: 40.0 mg/kg/injection, schedule: Q01DX001 (ip), vehicle: saline) of the same compound?
A: The survivor count was 0 of 6.

Q: What about the survivor count (dose: 80.0 mg/kg/injection, schedule: Q01DX001 (ip), vehicle: saline) of the same compound?
A: Its survivor count is 0 of 6.

Q: For `ClC(Cl)(c1ccccc1)C1(c2ccccc2)CC1`, which survivor count (dose: 300.0 mg/kg/injection, schedule: Q01DX001 (ip), vehicle: acetone) is on record?
A: The survivor count was 3 of 6.

Q: With `CC(=O)NC1CCCC(C)C1` (stereo not given) as the compound, how does the survivor count (dose: 400.0 mg/kg/injection, schedule: Q01DX009 (ip), vehicle: saline with Tween-80) read?
A: Its survivor count is 0 of 6.

Q: With `CC1CC2C(CC1=O)C(C)(C)CCC2(C)C` (stereo not given) as the compound, how does the survivor count (dose: 100.0 mg/kg/injection, schedule: Q04DX003 (ip), vehicle: Klucel (hydroxypropylcellulose) (HPC)) read?
A: The survivor count was 3 of 6.

Q: What does the source list for `c1ccc2c(c1)CC1(Cc3ccccc3-2)C[N+]12CCCCC2`?
A: survivor count [1]: 2 of 6; survivor count [2]: 0 of 6; survivor count [3]: 0 of 6

Q: How did the survivor count (dose: 80.0 mg/kg/injection, schedule: Q01DX009 (ip), vehicle: saline with Tween-80) turn out when `O=[N+]([O-])/C=C/c1ccc(Cl)cc1Cl` was run?
A: Its survivor count is 1 of 6.

Q: What about the survivor count (dose: 100.0 mg/kg/injection, schedule: Q04DX002 (ip), vehicle: Klucel (hydroxypropylcellulose) (HPC)) of the same compound?
A: The survivor count was 3 of 3.

Q: And the survivor count (dose: 160.0 mg/kg/injection, schedule: Q01DX009 (ip), vehicle: saline with Tween-80)?
A: Its survivor count is 3 of 6.

Q: What about the survivor count (dose: 160.0 mg/kg/injection, schedule: Q04DX003 (ip), vehicle: saline with Tween-80) of the same compound?
A: Its survivor count is 5 of 6.

Q: How did the survivor count (dose: 400.0 mg/kg/injection, schedule: Q01DX001 (ip), vehicle: water) turn out when `CC(=O)NNC(=O)c1cnccn1` was run?
A: Its survivor count is 3 of 6.

Q: What about the survivor count (dose: 600.0 mg/kg/injection, schedule: Q01DX001 (ip), vehicle: water) of the same compound?
A: The survivor count was 0 of 6.

Q: And the survivor count (dose: 800.0 mg/kg/injection, schedule: Q01DX001 (ip), vehicle: water)?
A: Its survivor count is 0 of 6.

Q: For `Nc1ncc(CNc2ccc(C(=O)O)cc2)c(N)n1`, which survivor count (dose: 400.0 mg/kg/injection, schedule: Q01DX001 (ip), vehicle: saline) is on record?
A: The survivor count was 2 of 4.
